Results taken from US20240307358 (published 2024).

Assay: general procedure: Fmoc solid-phase peptide synthesis; Wang Resin (EMD Millipore); HBTU/DIPEA
Details: whole synthesis, scale 0.125 mmol

In the case of WHWLPNLRHYAS, the “final LC-MS purity” value is reported as greater than 95%.

End groups of sequences in plain letters are not given here.
